Laboratory results: paper PMC10163288
Some of the results follow.

B1: il2ra_site1_2b5i_sap_17_mot_HHH_b1_05608_000000027_0001_1_14_H_._HHH_b1_05678_af2_0001_0000300018_0000001_1_0001 (protein)
chain: SSSSSELAQRARELLHEAQELMKQGNEEEARRVLEEAYEIAEEGNSPVILLFVRRALEDLSSSSS
B2: il2ra_site2_3nfp_normal_mot_HHH_b2_07083_af2_000000083_0001_42_56_H_._HHH_b1_04834_0001_0000100004_0000001_0_af2pred_0001_af2pred (protein)
chain: SSSSDIEERVRELLEQLEEALREGDEELFERLAKEVSQLAYEANDPELFSEVAQLLLEFGSSSSS
B3: il2ra_site1_3nfp_normal_mot_b9b1aa0f98829a21a591038753170461_0001_1_af2_000000119_0001_3_14_H_._HHH_b2_06853_0001_0000500050_0000001_1_af2pred_0001_af2pred_swap … (protein)
chain: SSSSSSREAEELVRRIQEALKNDDKEQAEELLEELKEIAEERNSRIAKELIERLERKVKSSSSSS
B4: il2ra_site1_2b5i_sap_24_mot_add8a691351788dd45ba4deda1838316_0001_1_000000263_0001_37_51_H_._7e65b9b3744af75e5722afc9efacd91e_0001_0001_0000300025_0000001_0_000 … (protein)
chain: SSSSSDPEKALELFLKADELYKAGKEEEAKKLLEEALKLAKAGGSNLLVKFIESALKQLGSSSSS
B5: il2ra_site1_3nfp_sap_15_mot_HHH_b2_05538_af2_000000197_0001_20_36_H_._HHH_b2_05054_0001_0000100001_0000001_0_0001_af2pred_0001_af2pred_swapped (protein)
chain: SSSSSELIREAIELLEEALELAFNGNPEEAKEVLEEARRLAEELGNESLLRRIEFDLRALESSSS
B6: il2ra_site2_2erj_normal_mot_HHH_b1_01239_000000175_0001_43_57_H_._HHH_b2_03035_0001_0000100009_0000001_0_af2pred_0001_af2pred (protein)
chain: SSSSSDKEETREEVEELLEEAKRIPDLEEAIKLLQEAAELADKYNDPELQELVERVLRRLSSSSS
B7: il2ra_site2_3nfp_normal_mot_HHH_b1_00660_af2_000000090_0001_40_57_H_._HHH_b1_07903_0001_0000200012_0000001_0_af2pred_0001_af2pred (protein)
chain: SSSSDEEEREIEQLIREAKELLEEGNPEEAKEALHKAAALAAEARDHELFMKILLLLEKIESSSS
B8: il2ra_site1_1z92_normal_mot_934a834d9b8b770824478def2ff2f329_0001_af2_000000088_0001_15_30_H_._HHH_b2_05340_af2_0001_0000200014_0000001_0_af2pred_0001_af2pred_1 (protein)
chain: SSSSSDEEAEEIVEELVKEFGLSEALERQLRRLAEDAQRQGLDEEDIEKELRSFAEFASSSSSSS
B9: il2ra_site2_2erj_sap_17_mot_HHH_b2_00484_af2_000000139_0001_42_55_H_._HHH_b1_00676_0001_0000600026_0000001_0_0001 (protein)
chain: SSSSDWLHRIYELANEITRLISEGDPEKAEELLEELEELAKERDSPAAEKLVETLQKLIEQSSSS
B10: il2ra_site2_3nfp_normal_mot_HHH_b1_00660_af2_000000090_0001_40_57_H_._HHH_b1_00185_af2_0001_0000300017_0000001_0_af2pred_0001_1_af2pred_swapped (protein)
chain: SSSSDEVEEEVRRLIEEAEKLLEEGDHEEAEEIARRAATLAAEARNHELFVAVLRLLERILSSSS
B11: il2ra_site2_3nfp_normal_mot_HHH_b1_04960_000000149_0001_23_39_H_._HHH_b2_04281_0001_0000200015_0000001_0 (protein)
chain: SSSSDEEEEVERLIQELEELVREGDEEKVEQLAQRVAALAFELNDFEAFARVVELLLSLLSSSSS
B12: il2ra_site1_2b5i_normal_mot_HHH_b2_02428_000000197_0001_19_35_H_._ems_3hM_1194_af2_0001_0000300047_0000001_1_af2pred_dldesign_0_af2pred (protein)
chain: SSVRETKKLLIRIHYLAKKKGDEETVAKVDKLYEELEEAEENNDEEKIEEVRKKALELEKEVKKS
B13: il2ra_site1_1z92_sap_18_mot_HHH_b1_06033_000000254_0001_1_19_H_._HHH_b1_00885_0001_0000200008_0000001_0_0001 (protein)
chain: SSSSSEHSRKVFELMRRLNEAVRNGDEEEARELAEELLKLAEESGSRSFARLAEMVLEDLSSSSS
B14: il2ra_site2_2erj_normal_mot_HHH_eva_0050_af2_000000198_0001_43_62_H_._HHH_b2_07905_0001_0000100013_0000001_0 (protein)
chain: SSSSSSDELEKRVEELLEEARHLSDLEEVYRLLNEALHLAAKHKDHELLRLILEFLKEHSSSSSS
B15: il2ra_site1_3nfp_normal_mot_01923d483164837742cf829bee572cc5_0001_af2_000000153_0001_17_30_H_._HHH_b1_06675_0001_0000300010_0000001_0 (protein)
chain: SSSSDEERDARQLVEFLIELAGLSEEQQEELRRFAEKLVEEGVDLAEIAELVIRLAARLEGSSSS
B16: il2ra_site1_3nfp_sap_17_mot_ems_3hC_836_0002_000000087_0001_24_40_H_._HHH_b2_00803_0001_0000800041_0000001_0_0001 (protein)
chain: SSSSSDEEVKERVEELLEEARHVDPEEAAKLLKEAWEAAAELKDQELAEEIYRWMREIVKSSSSS
B17: il2ra_site1_3nfp_normal_mot_HHH_b1_03753_af2_000000088_0001_41_54_H_._894fcaf535bbcaf6280540f02ced91cd_0001_0001_0000600030_0000001_0 (protein)
chain: SLEEEVERLLREAGVPPRFIEVIKVLLRAVQKGNPNAERRLRYDIKVAEQLGNEELVEALELALK
B18: il2ra_site1_1z92_sap_13_mot_HHH_b1_04883_af2_000000041_0001_20_37_H_._HEEHE_3044_0001_0000100020_0000001_0_0001 (protein)
chain: SSSSSDEEEAEEVVERLVEEFGLSEEDKEALEKDAEAALRLGLSEKSIELALHRFARLLGSSSSS
B19: il2ra_site2_3nfp_sap_11_mot_HHH_b2_04859_000000206_0001_40_55_H_._HHH_b2_07245_0001_0000600015_0000001_0_0001_af2pred_0001_1_af2pred_swapped (protein)
chain: SSSSSEDEEEVEKLLKEAEKIEDEHEVFAILSLAIEIAIKSRNEELLEEILEVANELRERSSSSS

Biological target: il2ra, P01589
Test: yeast display titration

Apparent Kd, inactive:
B1 no binding seen
B2 no binding seen
B3 no binding seen
B4 no binding seen
B5 no binding seen
B6 no binding seen
B7 no binding seen
B8 no binding seen
B9 no binding seen
B10 no binding seen
B11 no binding seen
B12 no binding seen
B13 no binding seen
B14 no binding seen
B15 no binding seen
B16 no binding seen
B17 no binding seen
B18 no binding seen
B19 no binding seen

Taken from above (two entries):
Apparent Kd, inactive:
B3 no binding seen
B4 no binding seen
